This test in a line: qHTS Assay to Find Inhibitors of Chronic Active B-Cell Receptor Signaling. Particulars: ABC-DLBCL IkBa-CBG/CBR reporter, luminescence ratio (green luciferase fused to IkBa over red control in TMD8 lymphoma cells), 4 h. In short, it runs like this: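 Cell line TMD8 (human ABC DLBCL), stably expressing tet-inducible CBG68-IkBa fusion and CBR; IMDM/0.5% FBS; cpd up to 46 uM; dox induction, 4 h, 37C/5% CO2; dual luminescence; green/red ratio; MG132 control.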
(In general: Quantitative high-throughput screening tests each substance at several concentrations.)

The mark [1] stands for this setting: measured here: CBR red luminescence, cell number.
The mark [2] stands for this setting: measured here: IkBa-CBG green luminescence.

Some of the results follow. These are further read-outs of the screen, such as a control signal, another cell line or another target. No call is given for them. Most of these compounds were active or inconclusive in the main read-out, so they are no random draw. Potencies come from curve fits of mixed quality, noted in brackets.

As a reminder, the AC50 is the midpoint of the concentration-response curve, whichever way the signal moves.

Take `Clc1ccc(-n2cccc2/C=N/n2cnnc2)cc1`: under setting [1], the AC50 was 0.00461 µM [rising, full curve, poor fit].

Take `Nc1nc(SCC(=O)c2ccc(Br)s2)n[nH]1`: under setting [1], the AC50 is 2.51 µM [rising, partial curve, poor fit].

Consider `O=C(Nc1nc(-c2ccccc2)cs1)c1ccc(N2CCOCC2)c([N+](=O)[O-])c1`, for which the AC50 is, setting by setting: under setting [1], 18.4 µM [falling, single point]; under setting [2], 16.4 µM [rising, single point].

Consider `Cc1ccc(CSCC(=O)N(C)CC(=O)Nc2ccc(Cl)c(Cl)c2)cc1`, for which the AC50 under setting [1] was 18.4 µM [falling, partial curve, poor fit]. Turning to `Nc1ccc(-c2c3ccccc3nc3ccccc23)cc1`, under setting [1], the AC50 is 2.51 µM [falling, partial curve, poor fit]. Turning to `Cn1cc(CCC(=O)N2CCCC(CCC(=O)NCc3ccccc3F)C2)cn1` (stereo unspecified), the AC50 under setting [1] is 35.5 µM [rising, single point]. The same measure, in the same setting: under `Cc1ccc(Oc2ncnc(N)c2[N+](=O)[O-])cc1C` stands 12.6 µM [falling, single point]; under `COc1ccc(-n2c(SCC(=O)NCc3ccco3)nc3c([nH]c4ccccc43)c2=O)cc1`, 13 µM [rising, partial curve, poor fit]. With `c1ccc(CN2CCN(c3nc(NCc4ccco4)c4ccccc4n3)CC2)cc1`, the AC50 reads like this: under setting [1], 3.26 µM [rising, partial curve, poor fit]; under setting [2], 18.4 µM [rising, partial curve, poor fit]. On to `CCC(=O)Nc1ccc(C(=O)Nc2cccnc2)cc1`, for which the AC50 under setting [1] is 6.51 µM [falling, single point]. The same measure, in the same setting: under `CCOc1ccc2nc(NC(=O)Cn3cnc4c3c(=O)n(C)c(=O)n4C)sc2c1` stands 4.47 µM [falling, full curve, poor fit]; under `CC(CN(C)Cc1ccccc1)OC(=O)c1cccs1` (stereo unspecified), 13 µM [rising, partial curve, poor fit].

With `CCC(C)Nc1ccc(NC(C)CC)cc1` (stereo unspecified), under setting [1], the AC50 is 10.3 µM [falling, partial curve]. Same read-out and setting: under `CC(Sc1nc(-c2ccccc2)cs1)C(=O)Nc1ccc(Cl)cn1` (stereo unspecified) stands 18.4 µM [falling, partial curve, poor fit]. In the case of `COC(=O)C1=CN(C)C=C(C(=O)OC)C1c1ccccc1Cl`, the AC50 under setting [1] was 23.1 µM [falling, single point]. On to `O=C(NCc1ccncc1)C(=O)NCC(c1ccco1)N1CCN(c2ccccc2)CC1` (stereo unspecified), for which the AC50 under setting [1] is 7.94 µM [rising, partial curve, poor fit].

In the case of `COc1ccc(N=NC2=C(O)CC(C)(C)CC2=O)c(OC)c1`, the AC50 under setting [1] was 20.6 µM [rising, single point]. As for `Cn1ncc(Br)c1C(=O)N/N=C/c1ccc(OS(=O)(=O)c2ccccc2)cc1`, the AC50 under setting [1] was 20.6 µM [falling, partial curve, poor fit].

For `C/C(CC(=O)NC1CCCCCC1)=N\NC(=O)c1cnccn1`, the AC50 under setting [1] is 18.4 µM [falling, single point]. As for `O=C1c2ccccc2/C(=C\c2ccc3[nH]ccc3c2)N1c1ccccc1`, the AC50 under setting [1] is 20.6 µM [rising, partial curve, poor fit]. Same read-out and setting: under `Cc1ccc(S(=O)(=O)Nc2ccc(NC(=O)/C=C/C(=O)O)cc2)cc1` stands 0.708 µM [rising, full curve, poor fit]. Still for that read-out and setting: next, `Cc1ccc(NC2Nc3cc(C)nn3S2)c(C)c1` (stereo unspecified): 20 µM [rising, partial curve, poor fit]; `CC(=O)N(C(C)=O)n1c(C)nc2sc3c(c2c1=O)CCCC3`: 17.8 µM [falling, partial curve, poor fit]; `CCOC(=O)c1cc2cc(OCc3ccccc3)ccc2nc1C`: 3.55 µM [rising, single point]. Same read-out and setting: next, `CCc1ccc(N2CC(C(=O)OCC(=O)c3c(N)n(CC(C)C)c(=O)n(C)c3=O)CC2=O)cc1` (stereo unspecified): 7.31 µM [rising, partial curve]; `COc1ccccc1C(=O)Nc1cccc(N(C)S(C)(=O)=O)c1`: 6.51 µM [rising, single point]. `O=C(NCC1CCN(C(=O)c2ccc([N+](=O)[O-])cc2)CC1)c1ccc([N+](=O)[O-])cc1`: the AC50 under setting [1] was 3.55 µM [falling, partial curve, poor fit]. As for `Nc1nc2nc(-c3ccccc3)cc(C(F)(F)F)c2s1`, the AC50 under setting [1] was 3.98 µM [rising, partial curve, poor fit]. Turning to `N=c1n(CC(=O)c2cccc([N+](=O)[O-])c2)c2ccccc2n1Cc1ccccc1`, the AC50 under setting [1] was 35.5 µM [falling, single point].

For the compound `Cc1ccc[n+](CC(=O)Nc2ccc([N+](=O)[O-])cc2Cl)c1`, the AC50 under setting [1] was 0.517 µM [rising, full curve, poor fit]. The same measure, in the same setting: next, `CCOC(=O)c1sc(=NC(=O)c2cccc(Br)c2)n(C)c1C`: 8.91 µM [falling, partial curve]; `COC(=O)c1ccc2c(=O)n(CCCCCC(=O)N3CCN(c4cc(C)ccc4C)CC3)c(=O)[nH]c2c1`: 7.08 µM [falling, full curve, poor fit]. The same measure, in the same setting: under `c1ccc2oc(-c3ccc4nc[nH]c4c3)nc2c1` stands 16.4 µM [falling, single point]. The same measure, in the same setting: next, `CCc1cc2ccc(C)cc2nc1SCC(=O)Nc1c[nH]c(=O)[nH]c1=O`: 11.2 µM [falling, partial curve, poor fit]; `Cc1ccccc1Nc1nc(NCc2ccco2)c2ccccc2n1`: 35.5 µM [falling, single point]. For the compound `FC(F)(F)c1cc(-c2ccco2)nc(NCc2cccnc2)n1`, the AC50 under setting [1] was 12.6 µM [falling, single point]. Turning to `CC1(c2ccccc2Cl)NC(=O)N(CC(=O)N2CCc3ccccc3C2)C1=O` (stereo unspecified), the AC50 under setting [1] was 14.6 µM [falling, partial curve, poor fit]. `O=C(Nc1ccccc1C(=O)N1CCCCC1)c1cccs1`: under setting [1], the AC50 is 3.16 µM [falling, single point]. As for `CCCCC(CC)CNC(=O)CCCCn1c(=O)[nH]c2ccsc2c1=O` (stereo unspecified), the half-maximal activity concentration (AC50) under setting [1] was 35.5 µM [falling, single point]. On the same count and under the same terms, next, `COC(=O)[C@H](CCSC)NC(=O)Nc1cc(OC)cc(OC)c1`: 0.794 µM [rising, full curve, poor fit]; `CN(C)c1ccc(/C=C/C(=O)c2ccccc2)cc1[N+](=O)[O-]`: 20.6 µM [falling, single point]; `O=[N+]([O-])c1ccccc1N/N=C1\CC2CC=CC12` (stereo unspecified): 35.5 µM [rising, single point]. As for `O=C(OCC(=O)N(CCc1ccccc1)Cc1ccccc1)c1ccccc1NCCO`, the AC50 under setting [1] is 11.2 µM [falling, partial curve, poor fit]. Turning to `Cc1ccc(C(=O)CSc2nnnn2C(C)C)c(C)c1`, under setting [1], the AC50 was 20.6 µM [rising, single point]. Same read-out and setting: under `CCOc1ccccc1NC(=O)c1cc(-c2cc(OC)c(OC)c(OC)c2)nc2ccccc12` stands 2.51 µM [falling, partial curve, poor fit]. On the same count and under the same terms, under `COc1ccc2c(=O)c3c(=O)n(-c4ccccc4)c(-c4ccco4)nc3oc2c1` stands 0.58 µM [falling, full curve]; under `O=C(CCSc1ccccc1)NC1CCCCCC1`, 12.6 µM [falling, partial curve]. On the same count and under the same terms, next, `CCOc1ccc(S(=O)(=O)Nc2ccccc2C(=O)Nc2ccccc2N2CCOCC2)cc1`: 0.731 µM [rising, partial curve, poor fit]; `CCNS(=O)(=O)c1ccc(NC(=O)Nc2ccc3c(c2)OCO3)cc1`: 35.5 µM [falling, partial curve, poor fit]. Consider `CCCC(=O)OCC(=O)c1[nH]c(C)c(C(C)=O)c1C`, for which the AC50 under setting [1] was 17.8 µM [rising, partial curve, poor fit].

As to `CCOC(=O)C1=CN(Cc2ccco2)S(=O)(=O)N(CC)C1c1ccc(C(F)(F)F)cc1` (stereo unspecified), the concentration at half-maximal activity (AC50) under setting [1] was 18.4 µM [falling, partial curve, poor fit] and the AC50 under setting [2] is 29.1 µM [rising, partial curve, poor fit]. Take `CC(C)(C)NC(=O)C(=O)NN=C1CCCCCC1`: the AC50 under setting [1] is 0.398 µM [rising, full curve, poor fit]. Take `O=C(Nc1nccs1)c1cc2c(s1)-c1ccccc1OC2`: the AC50 under setting [1] is 2.06 µM [falling, full curve, poor fit]. Turning to `CC[C@@H](C)[C@H](NC(=O)CCc1c(C)c2cc3c4c(oc3c(C)c2oc1=O)CCCC4)C(=O)O`, the AC50 was 1.12 µM [rising, partial curve, poor fit] under setting [1] and 3.55 µM [falling, partial curve] under setting [2]. Turning to `CCOc1cc(CNCCO)cc(Br)c1OCc1ccc(Cl)cc1`, the concentration at half-maximal activity (AC50) under setting [1] is 12.6 µM [falling, partial curve]. Still for that read-out and setting: next, `CCOC(=O)c1ccc(NC(=O)C(=O)NCC2CCCO2)cc1` (stereo unspecified): 11.2 µM [falling, partial curve, poor fit]; `COc1ccc(-c2cc(N)n(S(=O)(=O)Cc3ccccc3)n2)c(OC)c1`: 23.1 µM [rising, partial curve]. Same read-out and setting: next, `COc1ccc(NC(=O)CN(C)Cc2cccs2)cc1Cl`: 8.91 µM [rising, partial curve]; `Cc1cc(N/N=C/c2ccccc2)nc(N2CCOCC2)n1`: 12.6 µM [falling, single point]. Same read-out and setting: under `CCCCn1nc(NC(=O)COC)c2cc3ccc(C)cc3nc21` stands 15.8 µM [falling, single point]; under `COc1cc(C(=O)Nc2ccc3oc(-c4cccnc4)nc3c2)cc(OC)c1OC`, 0.708 µM [rising, full curve, poor fit]; under `COc1cc2c(cc1NC(=O)COCC(=O)O)oc1ccccc12`, 10 µM [falling, partial curve].
